# Results as given in article PMC7819943, “Rice protein-binding microarrays: a tool to detect cis-acting elements near promoter regions in rice”.
# Chains of the proteins cited; added tags and fusions are not shown.
# UniProt Q0JBA9, entry or part of it: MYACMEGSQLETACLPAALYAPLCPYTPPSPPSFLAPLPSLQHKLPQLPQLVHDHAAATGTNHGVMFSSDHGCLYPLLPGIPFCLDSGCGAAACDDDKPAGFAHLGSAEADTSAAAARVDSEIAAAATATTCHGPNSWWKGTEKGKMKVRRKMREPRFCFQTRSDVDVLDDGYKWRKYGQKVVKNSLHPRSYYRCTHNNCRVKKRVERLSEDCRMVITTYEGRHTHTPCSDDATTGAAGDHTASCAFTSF
# This is one part of the list.
# Target: OsWRKY34 (Oryza sativa, UniProt Q0JBA9 1-250)
# Assay: protein-binding microarray (RPBM); PBS, 2% BSA, 51.3 ng/ul salmon testes DNA, 50 uM zinc acetate, 200 nM TF, 25 C, 1 h; high values mean tight binding
# Details: protein: recombinant; tags: N-terminal polyhistidine and DsRed monomer fusion (pET32a); label: CyDye5-dUTP incorporated in the synthesized complementary strand; 3' TTTTT single-stranded linker to array surface; dsDNA, one strand shown
# How it was run: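 In PBS with 2% BSA, salmon testes DNA and 50 µM zinc acetate, 200 nM protein was incubated on a custom Agilent array at 25 °C for 1 h and then washed off. The array had been made double-stranded by primer extension with Cy5-dUTP and blocked with 2% BSA. The proteins were transcription factors fused N-terminally to polyhistidine and DsRed, expressed in E. coli BL21-CodonPlus and purified on Ni–NTA. The binding signal is per-feature fluorescence intensity (arbitrary units) from an Axon 4000B scanner.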
row,Sequence,binding signal
1,TCTTCCTTCTGCACTCGCTTCCAGCCCTAACCCTAGCCACCGGAGTCACCTAGTGCAG,9320 fluorescence intensity (a.u.)
2,TTTTTTGCACAACTCAATACACTTTATAGGATGTCTATTGCGGAGTCACCTAGTGCAG,8150 fluorescence intensity (a.u.)
3,GCACCTGGTAACGATTAGCCCTGCCTAGGTCTGTCTATTTCGGAGTCACCTAGTGCAG,8500 fluorescence intensity (a.u.)
4,GGACGCGCGTGGTGGGGTCTGGGTGGCAGCGGCGCGGCGCCGGAGTCACCTAGTGCAG,9980 fluorescence intensity (a.u.)
5,GGTTTTCATGGTGCTGTGGATGTTCACTAGCTTTGGAGGGCGGAGTCACCTAGTGCAG,10900 fluorescence intensity (a.u.)
6,CCCTCGCACGCCACCGGACGAACACCTCGCCGACAACCTTCGGAGTCACCTAGTGCAG,8840 fluorescence intensity (a.u.)
7,TGTTATTGTCAAAATTTTGGCATAGTTAATGATTTCTTATCGGAGTCACCTAGTGCAG,8160 fluorescence intensity (a.u.)
8,TCTAAGACTGAATCTGAACCGTTGACTACCTAGATTCGTACGGAGTCACCTAGTGCAG,10300 fluorescence intensity (a.u.)
9,CTCGGCCGCACCACCCACAAGACATGTCATCGCTGCTCCGCGGAGTCACCTAGTGCAG,8620 fluorescence intensity (a.u.)
10,ATCAGTTTGTAACCCCTACAATTTGTTGTTTATTCTCATACGGAGTCACCTAGTGCAG,8130 fluorescence intensity (a.u.)
11,ATCTTTCTTTGGCCAGCCCAAACAGCTCTTGCTGCAGTCACGGAGTCACCTAGTGCAG,8420 fluorescence intensity (a.u.)
12,TGTGATGTTTCTGTGAATTGGATTTGATTTGATTATACTGCGGAGTCACCTAGTGCAG,8350 fluorescence intensity (a.u.)
13,CCCCATCTGTATTTTAAATTTATATCCGCCACTGATTGTACGGAGTCACCTAGTGCAG,9800 fluorescence intensity (a.u.)
14,ACATCCTTCAGTCCTCCACCGTTAAGGAACAAGGACATATCGGAGTCACCTAGTGCAG,9420 fluorescence intensity (a.u.)
15,GAATATCCTTTGCCTTTCGTTTTTCTTTTTCCGTATGAAACGGAGTCACCTAGTGCAG,9320 fluorescence intensity (a.u.)
16,TGCACATGTCTGATCGATTGAGCATTCTAGGTCCGGCAATCGGAGTCACCTAGTGCAG,9110 fluorescence intensity (a.u.)
17,ATCGTTTCCCGTCACTGCCAGATAGCGACACCTCTTTTTGCGGAGTCACCTAGTGCAG,9600 fluorescence intensity (a.u.)
18,CCCATTGCTGTCTCTACCATGTGTCATCTTCCAATAAGCACGGAGTCACCTAGTGCAG,13800 fluorescence intensity (a.u.)
19,GGTTCAAATTAACTTTTCAATCTTGGCTGTGTTTGGATCCCGGAGTCACCTAGTGCAG,9630 fluorescence intensity (a.u.)
20,CGGTGGGTAGGGTGAAAAGATTCCATGGGTAGAAGGAGTACGGAGTCACCTAGTGCAG,9010 fluorescence intensity (a.u.)
21,AGCTACTACCTCTGTCTTATAGCAAGTTTAGTTTTAGTTACGGAGTCACCTAGTGCAG,11400 fluorescence intensity (a.u.)
22,CCCTCCGTTTCAAAATGTTTGACACCGTTGACTTTTTAGCCGGAGTCACCTAGTGCAG,28700 fluorescence intensity (a.u.)
23,GTTATATACTAGATCCGCTCGCCTTGTCCATCACCACCGACGGAGTCACCTAGTGCAG,8570 fluorescence intensity (a.u.)
24,GGTTGACTGCTCTCTGAAATTAATTTTATTCGTTTAGTTACGGAGTCACCTAGTGCAG,10900 fluorescence intensity (a.u.)
25,GTCAGCGTACATCCATTGCCGATCCATCTACATGAGTCAACGGAGTCACCTAGTGCAG,8510 fluorescence intensity (a.u.)
26,CTATTGCTTCCTTTGCACCGCCTCCTCCTTAGTGTCATTGCGGAGTCACCTAGTGCAG,10300 fluorescence intensity (a.u.)
27,ATTTCCGTTTCTAAATTGACACATCGGCTACTCACTTATGCGGAGTCACCTAGTGCAG,10800 fluorescence intensity (a.u.)

row,Sequence,binding signal
1,GTCATCAGTATATATATACCATCGCTGTCTGTTTTGTAGTCGGAGTCACCTAGTGCAG,8460 fluorescence intensity (a.u.)
2,AGTCCGTCGGTTAAGTGTTGGCCCGAACCAATGTCGGAATCGGAGTCACCTAGTGCAG,8220 fluorescence intensity (a.u.)
3,ATACTTAATTTTGGGCTTTCCTATTTTCCGGCCATTTTACCGGAGTCACCTAGTGCAG,11500 fluorescence intensity (a.u.)
4,GGGGTCTCTGATAGTCTGATTTTTTTGTCCTTTCTCATCACGGAGTCACCTAGTGCAG,10600 fluorescence intensity (a.u.)
5,CTTCATTGCTTCCTGTTTCCTAGCATCTCTTGTTTTCAGTCGGAGTCACCTAGTGCAG,9110 fluorescence intensity (a.u.)
6,GCTTTCTTTTAGCTATATACTCTATCCGTTTTAGGTTATACGGAGTCACCTAGTGCAG,8940 fluorescence intensity (a.u.)
7,CCGGTAGTCCAATCACTAGATATATTGTGTCTTTTTATTACGGAGTCACCTAGTGCAG,9810 fluorescence intensity (a.u.)
8,GCATGTAATTTAGAGGCTTTTAGTTTTCTTTGTTCATATTCGGAGTCACCTAGTGCAG,9200 fluorescence intensity (a.u.)
9,TTTTCCTCAAAACTGTTGCTTAGACCATTCTCTTCTTTCCCGGAGTCACCTAGTGCAG,8090 fluorescence intensity (a.u.)
10,ACTCATCTCTGTAAATGTACACCTTTGCCCTTTTAACCTTCGGAGTCACCTAGTGCAG,9780 fluorescence intensity (a.u.)
11,ATATTATGTCATTTTCTAATATTTACGTCTTTTCTTTCTTCGGAGTCACCTAGTGCAG,12100 fluorescence intensity (a.u.)
12,TTCTTCCGCACCCACCGTTGTTTTGACCCTGTTTTCACAACGGAGTCACCTAGTGCAG,9130 fluorescence intensity (a.u.)
13,GTACAGGGGCCGCTCCTTCTTCGTCTTCTTGGGCTTCTCCCGGAGTCACCTAGTGCAG,10400 fluorescence intensity (a.u.)
14,TCTCCTTTGTATCATCACCCGCCGCTATAAAAGCATAACCCGGAGTCACCTAGTGCAG,8690 fluorescence intensity (a.u.)
15,CGGGTTCGTTGGGTTTTATCTATATAGGCGGCGAGCGAGACGGAGTCACCTAGTGCAG,12300 fluorescence intensity (a.u.)
16,CGGCCACGGCCGACACACACAGCCAGATCCATCGCCTCGCCGGAGTCACCTAGTGCAG,8490 fluorescence intensity (a.u.)
17,CAATCACAAGCTATACCTGGACGGTTTCTCTATATTTTTTCGGAGTCACCTAGTGCAG,9850 fluorescence intensity (a.u.)
18,TATAACCATTACGTACTCCACGACAGCTCCTCTGCGACGCCGGAGTCACCTAGTGCAG,8220 fluorescence intensity (a.u.)
19,TTTGTGTAACCGATATGTGGGCCCCACATATTTTATTATTCGGAGTCACCTAGTGCAG,9030 fluorescence intensity (a.u.)
20,AGCTTTTTGTGTTCATTGGCCATTGTGTAGTAATTAAAACCGGAGTCACCTAGTGCAG,8600 fluorescence intensity (a.u.)
21,CACCGAAGAAATGTTTTTTAAACCTCTTCTTTTATTTATTCGGAGTCACCTAGTGCAG,8110 fluorescence intensity (a.u.)
22,TAAGTAGCATTTTCTGTTTCATCAGACCATTTTATCCTCTCGGAGTCACCTAGTGCAG,9760 fluorescence intensity (a.u.)
23,GTGCTTACGGTTTTTTTATTTTTATTTTTGTGTTGAAAATCGGAGTCACCTAGTGCAG,9800 fluorescence intensity (a.u.)
24,TCGCTGCGGGTGGGTAGCGCAGCGTCGGGGCAGATCCGGCCGGAGTCACCTAGTGCAG,10400 fluorescence intensity (a.u.)
25,CGCGCATCCCGGTTCGGAATCCGCTGCCGCCACCTTTCCCCGGAGTCACCTAGTGCAG,8800 fluorescence intensity (a.u.)
26,GTCTTCAACACGTCCTCGCTCACGACCACTCTACGGTGCCCGGAGTCACCTAGTGCAG,8600 fluorescence intensity (a.u.)
27,TGCGTCGTCTGTACCCGTACACATACCTAACCGCATCAGGCGGAGTCACCTAGTGCAG,9890 fluorescence intensity (a.u.)

# As entered above:
# binding signal with TGCGTCGTCTGTACCCGTACACATACCTAACCGCATCAGGCGGAGTCACCTAGTGCAG is entered as 9890 fluorescence intensity (a.u.)
# binding signal with GGTTGACTGCTCTCTGAAATTAATTTTATTCGTTTAGTTACGGAGTCACCTAGTGCAG is entered as 10900 fluorescence intensity (a.u.)
# binding signal with TGTTATTGTCAAAATTTTGGCATAGTTAATGATTTCTTATCGGAGTCACCTAGTGCAG is entered as 8160 fluorescence intensity (a.u.)
